These results are taken from PubChem BioAssay AID192 (DTP/NCI, 2004).

The subject of the experiment is BDF1 mice, B16 melanoma ip, median survival T/C. Kind of experiment: NCI In Vivo Anticancer Drug Screen. Data for tumor model B16 Melanoma (intraperitoneal) in B6D2F1 (BDF1) mice. To be noted: T/C endpoint: median survival time, higher T/C = longer survival. A digest of the protocol: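 Vehicle-treated animals serve as the reference (C); treated animals (T) are scored for survival or tumor size after tumor transplantation.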

The mark [1] stands for this setting: dose: 10.0 mg/kg/injection, schedule: Q01DX009 (ip), vehicle: saline with Tween-80.
The mark [2] stands for this setting: dose: 400.0 mg/kg/injection, schedule: Q01DX009 (ip), vehicle: Klucel (hydroxypropylcellulose) (HPC).
Where [3] appears, read: dose: 200.0 mg/kg/injection, schedule: Q01DX009 (ip), vehicle: saline with Tween-80.
Where [4] appears, read: dose: 100.0 mg/kg/injection, schedule: Q01DX009 (ip), vehicle: Klucel (hydroxypropylcellulose) (HPC).
[5] abbreviates: dose: 400.0 mg/kg/injection, schedule: Q01DX009 (ip), vehicle: saline with Tween-80.
Where [6] appears, read: dose: 200.0 mg/kg/injection, schedule: Q01DX009 (ip), vehicle: Klucel (hydroxypropylcellulose) (HPC).

The list does not hold the whole screen: it is rich in T/C values a quarter to a half above the control, in often repeated tests (any T/C) and in doses without a T/C. Further doses and runs are listed elsewhere. T/C is the treated group as % of the vehicle group. Some entries give survivors of the animals treated and no T/C: the source files T/C as zero there, which appears to mark a toxic dose or a test without result, not a measured value. Some doses without a T/C left all or most animals alive at the check, yet need not have been tolerated: the source hardly ever lists a survival T/C far under the control, and the zero likely stands for such cases as well. Counts of survivors are from the toxicity check (mostly the fifth day) where no day follows; animals may have died later. Schedules are NCI's codes, read here as Q, the interval in days (D) or hours (H), X, the number of doses. Where survival is the endpoint, this PubChem deposit counts one and a half times the control or more as active, and values a quarter to a half above the control carry no call in these data; other NCI protocols may use other cut-offs.

Regarding `COc1c(O)c2c(c3cc(C(=O)N4CCc5c4c(O)c(OC)c4[nH]c(C(=O)N6CC7CC78C6=CC(=O)c6[nH]cc(C)c68)cc54)[nH]c13)CCN2C(N)=O` (stereo unspecified), the T/C (dose: 3.0 micrograms/kg/injection, schedule: Q01DX009 (ip), vehicle: other) was 140 % of control. Besides, the survivor count is, setting by setting: (dose: 30.0 micrograms/kg/injection, schedule: Q01DX009 (ip), vehicle: other) 10 of 10; (dose: 100.0 micrograms/kg/injection, schedule: Q01DX009 (ip), vehicle: other) 10 of 10.

On to `C=C(C)CNC1=C(C)C(=O)C2=C(C1=O)[C@H](COC(N)=O)[C@]1(OC)[C@@H]3N[C@@H]3CN21`, for which the T/C was 130 % of control (dose: 0.5 mg/kg/injection, schedule: Q01DX001 (ip), vehicle: distilled water + Tween-80) and 129 % of control (dose: 1.0 mg/kg/injection, schedule: Q01DX001 (ip), vehicle: distilled water + Tween-80). The survivor count (dose: 24.0 mg/kg/injection, schedule: Q04DX003 (ip), vehicle: distilled water + Tween-80) is reported as 9 of 10.

In the case of `NC(=O)NOCC1NC(=O)C(CONC(N)=O)NC1=O` (stereo unspecified), under “dose: 100.0 mg/kg/injection, schedule: Q04DX003 (ip), vehicle: saline”, the survivor count was 10 of 10.

Turning to `CC[CH2][Pb]([CH2]CC)([CH2]CC)[O]C(=O)C(F)(F)F`, the survivor count by setting is: (dose: 6.25 mg/kg/injection, schedule: Q01DX009 (ip), vehicle: saline with Tween-80) 9 of 10; (dose: 12.5 mg/kg/injection, schedule: Q01DX009 (ip), vehicle: saline with Tween-80) 6 of 10; (dose: 25.0 mg/kg/injection, schedule: Q01DX009 (ip), vehicle: saline with Tween-80) 0 of 10.

Take `Cn1c(O)c(C=N)c(=O)n(C)c1=O`: under “dose: 100.0 mg/kg/injection, schedule: Q01DX009 (ip), vehicle: other”, the survivor count is listed as 8 of 10.

`CC(CN=Cc1ccccc1[O-])N=Cc1ccccc1[O-].[O]=[V]` (stereo unspecified): the survivor count is, setting by setting: under setting [1], 10 of 10; (dose: 20.0 mg/kg/injection, schedule: Q04DX003 (ip), vehicle: saline with Tween-80) 7 of 10.

Consider `Cc1cc(C)c(-c2cc(O)c(C)cc2O)c(C)c1`, for which, under setting [2], the survivor count is on record as 10 of 10.

For `CN1N=C(N)c2cn(C3OC(COP(=O)(O)O)C(O)C3O)c3ncnc1c23` (stereo unspecified), the survivor count is, setting by setting: (dose: 12.5 mg/kg/injection, schedule: Q01DX009 (ip), vehicle: water) 10 of 10; (dose: 25.0 mg/kg/injection, schedule: Q01DX009 (ip), vehicle: water) 10 of 10; (dose: 50.0 mg/kg/injection, schedule: Q01DX009 (ip), vehicle: water) 10 of 10; (dose: 100.0 mg/kg/injection, schedule: Q01DX009 (ip), vehicle: water) 8 of 10; (dose: 200.0 mg/kg/injection, schedule: Q01DX009 (ip), vehicle: water) 0 of 10.

As to `N#Cc1c(F)c(F)c(C#N)c(F)c1F`, the survivor count is, setting by setting: (dose: 5.0 mg/kg/injection, schedule: Q01DX009 (ip), vehicle: saline with Tween-80) 6 of 6; under setting [1], 5 of 6.

Turning to `Cc1ccc(C)c(C2NC(=O)c3ccccc3N2)c1` (stereo unspecified), under setting [2], the T/C was 133 % of control.

In the case of `CC[C@@]1(O)C[C@H](OC2CC(N(C)C)C(OC3CC(O)C(O[C@@H]4O[C@@H](C)C(=O)C=C4N)C(C)O3)C(C)O2)c2c(cc3c(c2O)C(=O)c2c(O)ccc(O)c2C3=O)[C@H]1C(=O)OC` (stereo partly specified), the T/C is, setting by setting: (dose: 0.1 mg/kg/injection, schedule: Q01DX001 (ip), vehicle: saline) 136 % of control; (dose: 0.2 mg/kg/injection, schedule: Q01DX001 (ip), vehicle: saline) 128 % of control; (dose: 0.4 mg/kg/injection, schedule: Q01DX001 (ip), vehicle: saline) 133 % of control; (dose: 0.8 mg/kg/injection, schedule: Q01DX001 (ip), vehicle: saline) 144 % of control. Further, the survivor count (dose: 3.0 mg/kg/injection, schedule: Q01DX009 (ip), vehicle: saline) is given as 10 of 10.

Take `Oc1ccc2ccccc2c1N=Nc1ccc(F)cc1`: the T/C under setting [3] was 140 % of control.

Regarding `CC[CH](C)[Hg][c]1cccc2ccccc12` (stereo unspecified), the survivor count under setting [4] is 6 of 10.

With `Cc1cc(C)c(CN)cc1CN`, the survivor count (dose: 100.0 mg/kg/injection, schedule: Q01DX009 (ip), vehicle: saline with Tween-80) is listed as 9 of 10.

Consider `NC(=S)N/N=C/c1ccc(OC(=O)COc2ccc(Cl)cc2)cn1`, for which the survivor count under setting [3] was 10 of 10 and the survivor count under setting [5] is 7 of 10.

As for `O=c1c2ccccc2[nH]c(=S)n1C1CCCCC1`, under setting [2], the survivor count is given as 10 of 10.

In the case of `O=C(/C=C/C(=O)OCC(Cl)(Cl)Cl)OCC(Cl)(Cl)Cl`, the survivor count under setting [5] is listed as 10 of 10.

As to `COc1cc2c(cc1OC)C(C#N)C2` (stereo unspecified), the survivor count was 5 of 10 (dose: 25.0 mg/kg/injection, schedule: Q01DX009 (ip), vehicle: Klucel (hydroxypropylcellulose) (HPC)); 6 of 10 (dose: 50.0 mg/kg/injection, schedule: Q01DX009 (ip), vehicle: Klucel (hydroxypropylcellulose) (HPC)); 0 of 10 under setting [4]; 0 of 10 under setting [6].

With `CN(C)N=Nc1cn(C)c(=O)n(C)c1=O`, the survivor count (dose: 100.0 mg/kg/injection, schedule: Q04DX003 (ip), vehicle: Klucel (hydroxypropylcellulose) (HPC)) is 12 of 12.

With `O=Cc1ccc(/C=C2\C=Cc3ccccc32)cc1`, the survivor count by setting is: under setting [3], 10 of 10; under setting [5], 10 of 10.

On to `Cc1nn(C2CC(O)C(O)C(CO)O2)c(=O)[nH]c1=O` (stereo unspecified), for which, under “dose: 200.0 mg/kg/injection, schedule: Q01DX009 (ip), vehicle: saline”, the survivor count is listed as 10 of 10.

In the case of `CNc1nc(NC)nc(NC)n1`, the survivor count was 9 of 10 under setting [6] and 0 of 10 under setting [2].

Consider `CC1CN1c1nc(N2CC2C)nc(N2CC2C)n1` (stereo unspecified), for which the survivor count is 10 of 10 (dose: 1.0 mg/kg/injection, schedule: Q01DX009 (ip), vehicle: saline); 10 of 10 (dose: 2.0 mg/kg/injection, schedule: Q01DX009 (ip), vehicle: saline); 10 of 10 (dose: 4.0 mg/kg/injection, schedule: Q01DX009 (ip), vehicle: saline); 10 of 10 (dose: 8.0 mg/kg/injection, schedule: Q01DX009 (ip), vehicle: saline); 3 of 10 (dose: 16.0 mg/kg/injection, schedule: Q01DX009 (ip), vehicle: saline with Tween-80); 6 of 10 (dose: 16.0 mg/kg/injection, schedule: Q01DX009 (ip), vehicle: saline). Moreover, the survivor count (dose: 16.0 mg/kg/injection, schedule: Q04DX003 (ip), vehicle: saline) is 10 of 10.

Consider `COc1ccc2c(NCCCCCCNc3c4ccccc4nc4cc(OC)ccc34)c3ccccc3nc2c1`, for which the survivor count reads like this: (dose: 0.63 mg/kg/injection, schedule: Q01DX009 (ip), vehicle: lactic acid) 0 of 10; (dose: 1.25 mg/kg/injection, schedule: Q01DX009 (ip), vehicle: lactic acid) 0 of 10; (dose: 2.5 mg/kg/injection, schedule: Q01DX009 (ip), vehicle: lactic acid) 1 of 10; (dose: 5.0 mg/kg/injection, schedule: Q01DX009 (ip), vehicle: lactic acid) 0 of 10; (dose: 10.0 mg/kg/injection, schedule: Q01DX009 (ip), vehicle: lactic acid) 1 of 10; (dose: 15.0 mg/kg/injection, schedule: Q01DX009 (ip), vehicle: lactic acid) 0 of 10.

Regarding `C[CH2][Pb]([CH2]C)([CH2]C)[O]C(=O)CBr`, the survivor count runs as follows: (dose: 6.0 mg/kg/injection, schedule: Q01DX009 (ip), vehicle: Klucel (hydroxypropylcellulose) (HPC)) 8 of 8; (dose: 12.0 mg/kg/injection, schedule: Q01DX009 (ip), vehicle: Klucel (hydroxypropylcellulose) (HPC)) 10 of 10.

With `Cc1cc(C)c(-c2c(C)cc(C)c(N)c2C)c(C)c1N`, the survivor count was 10 of 10 (dose: 150.0 mg/kg/injection, schedule: Q04DX003 (ip), vehicle: Klucel (hydroxypropylcellulose) (HPC)) and 7 of 10 (dose: 300.0 mg/kg/injection, schedule: Q04DX003 (ip), vehicle: Klucel (hydroxypropylcellulose) (HPC)).
